Experimental data as given in patent US5908781A, “Monoclonal antibodies to ceftiofur” (The United States of America as represented by the …, priority 1996, dated 1999).
At least one read-out could not be matched to a standard name with certainty.

Columns and labels:
[1] = molecular target: Cef-68; assay: Competitive indirect ELISA (ciELISA), competitor inhibition of MAb Cef-68 binding; design: species or system Balb/c mice; details: MAb Cef-68, final dilution 1:20; BSA-S-GMBS-Cef-coated plates; value ± standard deviation, average of 3-6 determinations
Procedure: (§1) The supernatant culture fluid from the cloned hybridomas may also be screened to select for those producing antibodies having a high affinity for ceftiofur. Affinity may be measured using a variety of well known techniques, such as ELISA, RIA or equilibrium dialysis using labeled ceftiofur. […] In accordance with this embodiment, the antibody containing supernatant is added to a ceftiofur or ceftiofur-complex coated substrate such as the wells of a microtiter plate, together with a range of concentrations of free ceftiofur as a competitor. Following incubation and washing, bound antibody in the wells is determined in the same manner as the db-ELISA. Percent inhibition may be calculated as (1-B/Bo)×100, where B is the optical density (OD) of a well with a competitor and Bo is the mean OD of the wells without competitor (control). […] However, for greater accuracy, the affinity may be alternatively measured at 50% inhibition (IC50).
(§2) Antibodies and ELISA Methods. A standard indirect ELISA method in which the hapten conjugate is immobilized on 96-well microtiter plates was used to evaluate the response of Balb/c mice towards the immunogen KLH-SMCC-desCef. The microtiter immunoplates (PGC Scientifics, Gaithersburg, Md.) were washed three times with a solution of 0.05% (v/v) polyoxyethylene sorbitan monolaurate (TWEEN 20)(Sigma Chemical Co., St. Louis, Mo.) in deionized water (TWEEN 20-water) and then coated with 100 μL of the coating antigen, BSA-SMCC-desCef (100 ng/well) in deionized water. The plates were dried overnight at 37° C. The plates were then washed three times with PBS-9 (0.01M sodium phosphate, 0.15M sodium chloride, pH 9) and the unbound active sites were blocked with 200 μL of 3% (w/v) nonfat milk in PBS-9 for 30 min at 37° C. The plates were washed three times with PBS-9, and 100 μL of supernatant containing the antibody was added to the microtiter plates, which were subsequently incubated for 60 min at 37° C. The unbound antibody was removed by washing the plate five times with TWEEN 20-water. Next, 50 μL of goat anti-mouse IgG-peroxidase conjugate (1:500 dilution)(Sigma Chemical Co., St. Louis, Mo.) was added, followed by incubation of the plates at 37° C. for 60 min. Finally, the plates were washed five times with TWEEN 20-water, 100 μL of K-blue substrate (Elisa Technologies, Lexington, Ky.) was added, and the absorbance was read at 655 nm.
(§3) For the ciELISA, the plates were prepared as above except that BSA-S-GMBS-Cef was used as the plate-coating antigen. Competitors were prepared in assay buffer (0.1M Tris, 0.15M sodium chloride, 0.01% (w/v) nonfat milk in deionized water, pH 7.75), added to the wells, and diluted in a 2-fold fashion immediately prior to addition of the anticeftiofur monoclonal antibody (Mab). Tissue culture media containing the anticeftiofur MAbs were used at a final dilution of 1:20 and 1:100 (for MAbs Cef-68 and Cef-116, respectively). The following competitors were used in a cross-reactivity study: ceftiofur sodium, cefteram sodium (Hoffmann-La Roche Inc., Nutley, N.J.), ceftriaxone sodium (Hoffmann-La Roche), cefuroxime sodium (Glaxo Man. Serv. Ltd., Barnard Castle, County Durham, England), ceftazidime pentahydrate (Glaxo), amoxicillin, ampicillin sodium, cefaclor, cefadroxil, cefamandole sodium, cefazolin sodium, cefoperazone sodium, cefotaxime sodium, cefoxitin sodium, cefsulodin sodium, cephalothin sodium, cephapirin sodium, cephradine, cloxacillin sodium, and penicillin-G sodium. Except where indicated otherwise, competitors were obtained from Sigma Chemical Co. (St. Louis, Mo.). The competitors were diluted to afford a solution containing a concentration range of 100-1000 ng/well in column 2 of the 96-well microtiter plates. Each competitor was serially diluted across the plate with columns 11 and 12 serving as controls (i.e. no competitor).

[2] = molecular target: Cef-116; assay: Competitive indirect ELISA (ciELISA), competitor inhibition of MAb Cef-116 binding; design: species or system Balb/c mice; details: MAb Cef-116, final dilution 1:100; BSA-S-GMBS-Cef-coated plates; value ± standard deviation, average of 3-6 determinations
Procedure: as §1, §2, §3

Compound | IC50 (ppb) Values for Antibodies, Cef-68 [1] | IC50 (ppb) Values for Antibodies, Cef-116 [2]
CC1(C)S[C@@H]2[C@H](NC(=O)[C@H](N)c3ccc(O)cc3)C(=O)N2[C@H]1C(=O)O [Amoxicillin, amoxicillin] | -- (no competitive inhibition was observed at a competitor concentration of 1000 ng/well) | -- (no competitive inhibition was observed at a competitor concentration of 1000 ng/well)
CC1(C)S[C@@H]2[C@H](NC(=O)[C@H](N)c3ccccc3)C(=O)N2[C@H]1C(=O)O [Ampicillin, ampicillin] | -- (no competitive inhibition was observed at a competitor concentration of 1000 ng/well) | -- (no competitive inhibition was observed at a competitor concentration of 1000 ng/well)
N[C@@H](C(=O)N[C@@H]1C(=O)N2C(C(=O)O)=C(Cl)CS[C@H]12)c1ccccc1 [Cefaclor, cefaclor] | -- (no competitive inhibition was observed at a competitor concentration of 1000 ng/well) | -- (no competitive inhibition was observed at a competitor concentration of 1000 ng/well)
CC1=C(C(=O)O)N2C(=O)[C@@H](NC(=O)[C@H](N)c3ccc(O)cc3)[C@H]2SC1 [Cefadroxil, cefadroxil] | -- (no competitive inhibition was observed at a competitor concentration of 1000 ng/well) | -- (no competitive inhibition was observed at a competitor concentration of 1000 ng/well)
Cn1nnnc1SCC1=C(C(=O)O)N2C(=O)[C@@H](NC(=O)[C@H](O)c3ccccc3)[C@H]2SC1 [Cefamandole, cefamandole] | -- (no competitive inhibition was observed at a competitor concentration of 1000 ng/well) | -- (no competitive inhibition was observed at a competitor concentration of 1000 ng/well)
Cc1nnc(SCC2=C(C(=O)O)N3C(=O)[C@@H](NC(=O)Cn4cnnn4)[C@H]3SC2)s1 [Cefazolin, cefazolin] | -- (no competitive inhibition was observed at a competitor concentration of 1000 ng/well) | -- (no competitive inhibition was observed at a competitor concentration of 1000 ng/well)
CCN1CCN(C(=O)N[C@@H](C(=O)N[C@@H]2C(=O)N3C(C(=O)O)=C(CSc4nnnn4C)CS[C@H]23)c2ccc(O)cc2)C(=O)C1=O [Cefoperazone, cefoperazone] | -- (no competitive inhibition was observed at a competitor concentration of 1000 ng/well) | -- (no competitive inhibition was observed at a competitor concentration of 1000 ng/well)
CO[C@@]1(NC(=O)Cc2cccs2)C(=O)N2C(C(=O)O)=C(COC(N)=O)CS[C@@H]21 [Cefoxitin, cefoxitin] | -- (no competitive inhibition was observed at a competitor concentration of 1000 ng/well) | -- (no competitive inhibition was observed at a competitor concentration of 1000 ng/well)
NC(=O)c1cc[n+](CC2=C(C(=O)O)N3C(=O)[C@@H](NC(=O)[C@@H](c4ccccc4)S(=O)(=O)[O-])[C@H]3SC2)cc1 [Cefsulodin, cefsulodin] | -- (no competitive inhibition was observed at a competitor concentration of 1000 ng/well) | -- (no competitive inhibition was observed at a competitor concentration of 1000 ng/well)
CC(C)(O/N=C(\C(=O)N[C@@H]1C(=O)N2C(C(=O)[O-])=C(C[n+]3ccccc3)CS[C@H]12)c1csc(N)n1)C(=O)O [Ceftizidime, ceftazidime] | -- (no competitive inhibition was observed at a competitor concentration of 1000 ng/well) | -- (no competitive inhibition was observed at a competitor concentration of 1000 ng/well)
CO/N=C(\C(=O)N[C@@H]1C(=O)N2C(C(=O)O)=C(COC(N)=O)CS[C@H]12)c1ccco1 [Cefuroxime, cefuroxime] | -- (no competitive inhibition was observed at a competitor concentration of 1000 ng/well) | 
CC(=O)OCC1=C(C(=O)O)N2C(=O)[C@@H](NC(=O)Cc3cccs3)[C@H]2SC1 [Cephalothin, cephalothin] | -- (no competitive inhibition was observed at a competitor concentration of 1000 ng/well) | -- (no competitive inhibition was observed at a competitor concentration of 1000 ng/well)
CC1=C(C(=O)O)N2C(=O)[C@@H](NC(=O)[C@H](N)C3=CCC=CC3)[C@H]2SC1 [Cephradine, cephradine] | -- (no competitive inhibition was observed at a competitor concentration of 1000 ng/well) | -- (no competitive inhibition was observed at a competitor concentration of 1000 ng/well)
Cc1onc(-c2ccccc2Cl)c1C(=O)N[C@@H]1C(=O)N2[C@@H]1SC(C)(C)[C@@H]2C(=O)O [Cloxacillin, cloxacillin] | -- (no competitive inhibition was observed at a competitor concentration of 1000 ng/well) | -- (no competitive inhibition was observed at a competitor concentration of 1000 ng/well)
CC1(C)S[C@@H]2[C@H](NC(=O)Cc3ccccc3)C(=O)N2[C@H]1C(=O)O [Penicillin G, penicillin G] | -- (no competitive inhibition was observed at a competitor concentration of 1000 ng/well) | -- (no competitive inhibition was observed at a competitor concentration of 1000 ng/well)
